Some of these results come from one statement about several compounds together.
Tested on: full thickness surgical wounds on the dorsum of BALB/cJ mice
Test: Closure of full thickness surgical wounds, percent wound closure
Type: in vivo
Conditions: for onset of wound closure after treatment: 30 μg/dose SC; for doses showing no significant wound closure compared to non-HSP controls: data not shown
Description: Surgery and Treatment. Mice were anesthetized using Ketamine (2.0 mg/mouse) and Xylazine (0.1 mg/mouse) were administered intraperitoneally (IP) and the dorsal skin was shaved. After sterile prepping of the area, a full thickness circular wound, 8 mm diameter, was made on the dorsal skin using a disposable biopsy punch (Miltex Inc, York, Pa.) on the midline of the dorsum approximately at the iliac crest. The mice were then randomly assigned into the treatment groups. Initial wound measurements were performed while the mice were still anesthetized. Mice were then treated on days 0, 2, 4, and 6 unless otherwise specified. All agents used as treatment were diluted in 0.5 ml of PBS and injected using a 25-gauge needle in the subcutaneous space in the nape of the neck. The surgical procedures, post-operative monitoring, and safety concerns were approved by the Institutional Animal Care and Usage Committee.
Measurements and Analysis. Wound healing of open wounds is a complex process with many parameters to consider. […] The wound surface area was determined by measuring the craniocaudal and lateromedial distances using vernier calipers in perpendicular axis on days 0, 2, 4, 6, 9, and 11 postoperatively unless noted. Changes in wound area were expressed as percent wound closure. Wound closure data was plotted as average percent wound closure ±SEM unless otherwise noted. All calculations and data analysis were performed using Microsoft Excel and Sigma Plot. Sigma Plot was used to perform Student's t-tests for reported P values.
Full thickness surgical wounds were created on the dorsum of BALB/cJ mice as described in Methods. Wounds were made on day 0. Subsequently, the wounds were treated with exogenous injections of HSP70, HSP90, gp96 (30 μg/dose) or buffer administered subcutaneously (SC) on days 0, 2, 4 and 6 following surgery (FIG. 6A). The wounds were measured on days 0, 2, 4, 6, 9, 11 unless otherwise noted. Wounds were measured serially, percent wound closure was calculated and plotted against time in order to quantitate the rate of healing by secondary intention. […] Data is plotted as average percent wound closure ±SEM on days indicated. Two mice from each treatment group (PBS (n=12), HSP70 (n=11), HSP90 (n=12), and gp96 (n=11)) were sacrificed for histology on days 2, 4, and 6 post-surgery (data not shown). The P values obtain using the Student's t-test.
Results are of average percent wound closure ±SEM on day 2 post surgery. The *P values were obtained using the Student's t-test by comparing HSP treatment to all of the non-HSP control treatments. The least significant P value was reported. […] Doses higher than 50 μg/dose were not tested.

HSP70: heat shock protein purified from murine livers, prepared as a complex with endogenous peptide
onset of wound closure after treatment: ≤ 48 h
doses showing no significant wound closure compared to non-HSP controls: lower than 5 μg

B1: gp96: heat shock protein (HSP90 family, endoplasmic reticulum) purified from murine livers (protein, UniProt P08113 22-802, looked up)
Endoplasmin: DDEVDVDGTVEEDLGKSREGSRTDDEVVQREEEAIQLDGLNASQIRELREKSEKFAFQAEVNRMMKLIINSLYKNKEIFLRELISNASDALDKIRLISLTDENALAGNEELTVKIKCDKEKNLLHVTDTGVGMTREELVKNLGTIAKSGTSEFLNKMTEAQEDGQSTSELIGQFGVGFYSAFLVADKVIVTSKHNNDTQHIWESDSNEFSVIADPRGNTLGRGTTITLVLKEEASDYLELDTIKNLVRKYSQFINFPIYVWSSKTETVEEPLEEDEAAKEEKEESDDEAAVEEEEEEKKPKTKKVEKTVWDWELMNDIKPIWQRPSKEVEEDEYKAFYKSFSKESDDPMAYIHFTAEGEVTFKSILFVPTSAPRGLFDEYGSKKSDYIKLYVRRVFITDDFHDMMPKYLNFVKGVVDSDDLPLNVSRETLQQHKLLKVIRKKLVRKTLDMIKKIADEKYNDTFWKEFGTNIKLGVIEDHSNRTRLAKLLRFQSSHHSTDITSLDQYVERMKEKQDKIYFMAGSSRKEAESSPFVERLLKKGYEVIYLTEPVDEYCIQALPEFDGKRFQNVAKEGVKFDESEKTKESREATEKEFEPLLNWMKDKALKDKIEKAVVSQRLTESPCALVASQYGWSGNMERIMKAQAYQTGKDISTNYYASQKKTFEINPRHPLIRDMLRRIKEDEDDKTVMDLAVVLFETATLRSGYLLPDTKAYGDRIERMLRLSLNIDPEAQVEEEPEEEPEDTSEDAEDSEQDEGEEMDAGTEEEEEETEKESTEKDEL
modifications: complexed with endogenous peptides
notes: heat shock protein (HSP90 family, endoplasmic reticulum) purified from murine livers
onset of wound closure after treatment: ≤ 48 h
doses showing no significant wound closure compared to non-HSP controls: lower than 5 μg
